Measured values from patent publication US20190224339A1.
No constants are given. Whether binding was seen depends on the method and setting. Some binding calls cover weakened binding; strength is not graded here.

By UniProt entry, the sequences of proteins in these tests, tags left out. Where a name states a change or a piece, a line headed by the entry shows the natural chain unless it says otherwise. Chains listed by the source or under a name are the forms on record and can include a tag or linker.
extracellular tau in the form of paired helical filaments (ePHF) (P10636, form named): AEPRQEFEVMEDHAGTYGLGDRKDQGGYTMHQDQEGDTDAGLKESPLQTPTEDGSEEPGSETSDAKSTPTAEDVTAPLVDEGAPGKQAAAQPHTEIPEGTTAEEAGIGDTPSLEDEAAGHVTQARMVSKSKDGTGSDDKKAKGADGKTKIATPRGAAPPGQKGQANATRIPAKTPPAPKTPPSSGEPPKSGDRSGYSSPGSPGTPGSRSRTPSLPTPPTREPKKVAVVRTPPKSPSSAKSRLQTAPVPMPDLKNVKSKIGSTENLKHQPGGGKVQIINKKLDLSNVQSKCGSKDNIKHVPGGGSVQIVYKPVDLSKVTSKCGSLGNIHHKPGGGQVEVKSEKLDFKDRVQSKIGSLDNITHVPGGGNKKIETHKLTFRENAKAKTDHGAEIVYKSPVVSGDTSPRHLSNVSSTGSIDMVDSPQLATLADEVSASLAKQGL

Target: extracellular tau in the form of paired helical filaments (ePHF) (UniProt P10636)
Assay: ELISA, ePHF tau coated on plate, control antibody, anti-mouse HRP detection

binding: binds
B1: anti-tau antibody IPN002 (control antibody) (antibody, mouse IgG1, kappa, V domains shown)
VH: EVHLVESGGALVKPGGSLKLSCAASGFSFSKYGMSWVRQTPDKRLEWVATISSSGSRTYYPDSVKGQFTISRDNAKNTLYLQMSSLKSEDTAMYYCSISWDGAMDYWGQGTSVTVSS
VL: DVLMTQTPLSLPVSLGDQASISCKSSQSIVHSNGNTYLEWYLQKPGQSPKLLVYKVSNRFSGVPDRFSGSGSGTDFTLKISRVEAEDLGTYYCFQGSLVPWAFGGGTKLEIKR
